Here are results for one substance from paper PMC5349559.

Amino acid sequences for entries named in this document (tags omitted). Residues count along the entry.
UniProt P13500, residues 24-99: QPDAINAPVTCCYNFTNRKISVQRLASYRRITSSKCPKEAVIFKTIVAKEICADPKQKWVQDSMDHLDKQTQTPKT

In this assay the target is CCR2b (UniProt P41597). As to the kind of experiment: radioligand binding; cold-ligand competition on 2 x 10^5 HEK-CCR2b cells; unlabelled CCL2 or NO2-CCL2 at 0.1-650 nM with a tracer amount of [125I]-CCL2; on ice with agitation 2 hr; binding buffer 1 mM CaCl2, 5 mM MgCl2, 50 mM HEPES, 0.5% BSA, pH7.2; washed with binding buffer with 0.5 M NaCl; one site competition analysis; only the binder purified.

No constants are given. Whether binding was seen depends on the method and setting. Some results given as binding are weak or reduced against the parent protein; the word gives no strength.

Regarding “[125I]-CCL2 (from UniProt P13500 24-99) (ligand)”, the binding result was “binds”.
